Percent effect of library compounds

Chains of the proteins cited; added tags and fusions are not shown. Residues count along the entry.
UniProt Q8IDJ8, 1-583: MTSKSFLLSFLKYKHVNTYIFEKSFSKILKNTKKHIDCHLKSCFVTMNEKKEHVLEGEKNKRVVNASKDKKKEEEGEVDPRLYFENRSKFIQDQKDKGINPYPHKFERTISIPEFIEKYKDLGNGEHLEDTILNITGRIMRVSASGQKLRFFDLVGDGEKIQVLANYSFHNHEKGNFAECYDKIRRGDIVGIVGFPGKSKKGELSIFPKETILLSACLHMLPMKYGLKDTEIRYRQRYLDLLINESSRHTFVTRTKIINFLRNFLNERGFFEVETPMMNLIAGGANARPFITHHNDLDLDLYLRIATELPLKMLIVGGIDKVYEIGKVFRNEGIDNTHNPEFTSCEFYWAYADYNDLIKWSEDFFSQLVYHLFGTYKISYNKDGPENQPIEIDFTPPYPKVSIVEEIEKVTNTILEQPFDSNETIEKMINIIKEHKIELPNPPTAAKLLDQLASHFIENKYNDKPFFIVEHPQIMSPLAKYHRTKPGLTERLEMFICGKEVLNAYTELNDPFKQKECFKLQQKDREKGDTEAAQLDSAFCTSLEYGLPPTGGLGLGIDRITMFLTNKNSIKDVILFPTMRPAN

Measurements from “University of Dundee, Small-Polar-MMV Screening Library” (2021), ChEMBL document CHEMBL3988442.

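Enzyme assay of the cytosolic lysyl-tRNA synthetase in 384-well plates, read by luminescence. Target: Lysine-tRNA ligase, Plasmodium falciparum 3D7 (UniProt Q8IDJ8). Concentration: 30 µM. Higher reads as stronger inhibition, judged from the few compounds that gave an IC50. About 69,000 compounds were tested under these conditions; 0.071% (about 49) showed 50% or more at least once.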

Each number is a percent effect as filed.
The controls that fix the scale are not given in the record; negative values are as filed.
This is an unselected part of the compounds tested.

SMILES | effect
c1cnc(N2CCC3(CCN(CC4CCCC4)CC3)C2)nc1 | 3.709
CC(=O)N1CCC(c2nccnc2Oc2ccccc2)CC1 | -6.315
CCS(=O)(=O)N1CCCn2nnc(CNC(C)=O)c2C1 | -1.186
COCC(=O)NCc1cc(=O)n2c(n1)CN(Cc1ccccc1)CCC2 | 1.285
O=C(c1cc(-c2cn[nH]c2)nc2cc(F)ccc12)N1CCS(=O)(=O)CC1 | 3.904
COC(=O)C1CCN(c2cc(C)nc(-c3ccncc3)n2)CC1 | -0.1474
Cc1[nH]nc2ncc(C(=O)N3CCN(CC(C)(C)O)CC3)cc12 | 2.033
CCOc1ncccc1NC(=O)N1CCCC(CNC(N)=O)C1 (configuration not stated) | -1.171
CC(=O)N[C@@H]1CN(C(=O)c2cc3ccccc3[nH]2)C[C@H]1c1ccc(C)o1 | 7.744
NC(=O)CNC(c1ccccc1)c1ccccc1 | 0.7166
N#Cc1cccc(N2CCCC3(CCC(=O)N(C4CCCC4)C3)C2)n1 (configuration not stated) | 1.513
CCOCCCNC(=O)Cc1cccs1 | 2.601
CO[C@H]1CN(C(=O)c2cc3ccccc3[nH]2)CC[C@H]1N | 4.494
Cn1cc(N2CC3(CCN(CC4CC4)C3)CC2=O)cn1 (configuration not stated) | 0.9124
O=C(Nc1cccc(CN2CCC(CO)CC2)c1)c1cc(Cl)c[nH]1 | 4.899
CCCC(NC(=O)c1cc(C)ccc1O)c1nnn[nH]1 (configuration not stated) | 3.888
CNCCNc1nccc(-c2cn(C)nc2C)n1 | 9.083
C1Cc2nc(CCNc3nc(C4CC4)nc4c3CCNCC4)sc2C1 | 0.2194
Cn1ccc(C(=O)N2C[C@@H]3CCN(c4cccnc4)C[C@@H]3C2)n1 | 3.092
Cc1nc(C)n(C2CCCN(C(=O)c3ccc(NC4CC4)nc3)C2)n1 (configuration not stated) | 2.292
COc1ccc(C(C)NC(=O)NCCc2ccc(C)nc2)c(OC)c1 (configuration not stated) | -4.771
COc1ccc(C)cc1NC(=O)c1c(C)cn(C)c1CC(=O)O | 4.448
O=C(C[S+]([O-])Cc1ccccc1F)N1CCc2sccc2C1 (configuration not stated) | 12.51
CN1C(=O)C2(CC(=O)Nc3c2cnn3C(C)(C)C)c2c(Cl)cccc21 (configuration not stated) | -1.062
Cc1nn(C)c(N2CCOCC2)c1CNC(C(N)=O)c1ccccc1 (configuration not stated) | 4.044
Cc1occc1C(=O)N1CCCN(Cc2nccn2C)CC1 | 1.952
Cc1cccc(CN2Cc3[nH]nc(COc4cccnc4)c3C2)n1 | 1.792
CC(NCc1cnc(N2CCN(C)CC2)nc1)c1ccc(F)cc1 (configuration not stated) | 1.767
CCO[C@H]1CO[C@@]2(CCCN(Cc3nc(C)cs3)C2)C1 | 1.201
CCc1nc(CNCCn2cc(C)cn2)no1 | -1.621
CCc1cc(CNC(=O)N2CCN(c3nc(C)c(C)s3)CC2)on1 | 6.917
Cn1c(SCC(=O)NC(C)(C#N)C2CC2)nc2ccccc21 (configuration not stated) | 7.365
Cn1c(N2CCOCC2)nc2cc(C(=O)N3CC(O)CO3)ccc21 (configuration not stated) | -4.82
COc1ccc(OC)c(-c2cc(C(=O)NCC3(CO)CC3)n(C)n2)c1 | 5.549
CNC(=O)C(CC(C)C)NC(=O)c1cccc(-c2n[nH]c(C)n2)c1 (configuration not stated) | 5.194
COc1cccc(-c2nc(C)c(C(=O)N[C@@H](CCSC)C(=O)O)s2)c1 | 0.7031
Cc1nc(CN2C(=O)CCC23CCN(Cc2ccccn2)CC3)cs1 | -0.8727
CCc1nc(C)c(C(=O)NCCN2CCC(C)CC2)s1 | -4.3
O=C(CC1C=CCC1)Nc1ncn(CC(=O)N2CCCCCC2)n1 (configuration not stated) | 0.3469
Cc1cnc(C(=O)N2CCCC(c3c(C)c(=O)nc4n3CCC4)C2)cn1 (configuration not stated) | 7.229
Cc1cc(N2CCCN(C(=O)Cc3cc(F)cc(F)c3)CC2)ccn1 | 0.1767
Cc1nc(NCCc2ccccc2)cc(C(=O)N2CCCCC2)n1 | 2.135
O=C(NC1(c2nnn(CC3CCCO3)n2)CCCC1)c1ccccc1 (configuration not stated) | 0.8084
CCN(C)c1ncnc2c1CCN(C(=O)c1ccc(C)o1)CC2 | 1.273
O=C(c1csc(-c2cnccn2)n1)N1CCCC1Cn1cccn1 (configuration not stated) | 1.614
CCOCC(O)CN1CCN(C(=O)Cc2cccc(Cl)c2)CC1 (configuration not stated) | 1.881
Cc1ccsc1CN(C)c1nc2c(cnn2C(C)(C)C)c(=O)[nH]1 | 6.358
CCOc1ccnc(N2CCN(C(=O)c3ccoc3)CC2)n1 | -2.289
O=C(O)CSc1nnc(-c2cn[nH]c2)n1-c1ccccc1Cl | -2.337
NC(=O)c1ccc(NC(=O)c2ccncc2Cl)cn1 | -0.7636
Cn1nccc1C1CCN(Cc2cnn(-c3ccccc3)n2)CC1 | -2.501
CCCn1c(C)c(CC(=O)NCCC(N)=O)c2c1CC(C)(C)CC2=O | 2.25
Cc1occc(=O)c1OCC(=O)N1CCc2ccccc2C1 | 2.08
Cc1ccc(OCC(O)CN(C)CC(=O)NC(C)C)c(C)c1 (configuration not stated) | 2.2
Cc1cnc(C(C)(C)NC(=O)NCc2cccnc2OC(C)C)s1 | 5.147
CS(=O)(=O)NCCCNC(=O)c1cccc(-n2cccc2)c1 | 6.024
CNc1nc(N2CCC3(CCCNC3=O)C2)nc2c1CCC2 (configuration not stated) | 0.6635
Cc1ccc(C(=O)Nc2cc(C(N)=O)ccc2CN(C)C)cc1Cl | 1.502
CN(CC1CCCN1C)c1nccc(C2CCCC2)n1 (configuration not stated) | -3.121
CCN(Cc1nc(C2CC2)no1)Cc1ccc(C#N)cc1F | 2.112
Cc1cc(CNCc2c(C)nn(C)c2N2CCOCC2)no1 | 8.137
Cc1cc(NCC2CCCCC2)n2ncnc2n1 | 5.264
Cc1nc2c(c(N(C)C)n1)CCN(C(=O)c1sccc1S(N)(=O)=O)C2 | 6.257
CCOc1cccc(C(=O)N2CCCn3nc(CCC(=O)O)cc3C2)c1 | 1.826
CN1CCCN(c2nc(C3CCCC3)nc3c2cnn3C)CC1 | 3.769
Cc1noc(C)c1CN(C)CC(=O)/N=c1\cc[nH]n1C(C)C1CC1 (configuration not stated) | 6.05
CCSc1ccccc1C(=O)NCC1CCN(Cc2ccsc2)CC1 | 1.221
Cc1cc(CN(C)Cc2cc3c(cc2OC(F)F)OCO3)on1 | 4.257
O=C(O)c1nnn(-c2ccc(C(F)(F)F)cc2)c1-c1ccncc1 | 6.484
CC(C)[C@H](NS(C)(=O)=O)C(=O)NCc1cc(-c2ccco2)nn1C | 3.04
c1ccc(Cn2ccnc2CN2CCOC(Cn3cccn3)C2)cc1 (configuration not stated) | 4.016
Cc1noc(CCCNC(=O)C2CSCN2C(=O)C(C)(C)C)n1 (configuration not stated) | -0.7614
Cc1[nH]c(=O)sc1S(=O)(=O)N1CCCC1C(=O)NCc1ccsc1 (configuration not stated) | 6.921
CCN(CC(C)O)C(=O)Nc1cnn(CCOC)c1 (configuration not stated) | 1.231
Cc1ccsc1CN(Cc1ccccn1)CC(C)C | 0.2462
CSCCC(C)(O)CNS(=O)(=O)Cc1cccc(C)c1 (configuration not stated) | 2.56
CCn1cc(C2CCN(Cc3ccnc(N(C)C)c3)CC2)cn1 | -1.798
CCc1cccc(C)c1NC(=O)C1CC(=O)N(Cc2ccccn2)C1 (configuration not stated) | -2.617
COCCNc1nc2c(c(NCc3cnc(C)cn3)n1)CCNCC2 | 3.509
O=C(CSc1ccc2c(c1)OCCO2)NS(=O)(=O)c1ccccc1Cl | 5.609

The last 4 entries again:

* CCn1cc(C2CCN(Cc3ccnc(N(C)C)c3)CC2)cn1 | -1.798%
* CCc1cccc(C)c1NC(=O)C1CC(=O)N(Cc2ccccn2)C1 (configuration not stated) | -2.617%
* COCCNc1nc2c(c(NCc3cnc(C)cn3)n1)CCNCC2 | 3.509%
* O=C(CSc1ccc2c(c1)OCCO2)NS(=O)(=O)c1ccccc1Cl | 5.609%